Results from the supplement of paper PMC10338343.
± gives the standard deviation. Only a part is listed here, and it is no random draw. Many of these values have a large error.
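Note: 1 nM active piRISC with 0.1 nM target library at 33 °C single turnover.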

These sequences were tested on MIWI (PIWIL1) piRISC loaded with Kctd7 piRNA (30 nt) (assay: pre-steady-state target cleavage rate (min^-1); MIWI and MILI are mouse PIWI proteins and EfPiwi is from a freshwater sponge; tags in brackets are library labels; higher = faster piRNA-guided slicing of the target). Settings: guide: Kctd7 piRNA 5'p-UGUUAAUCUCUCAGAGAAGGUGACAGUGAU; auxiliary factor: 500 nM mouse GTSF1.
In short: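 A burst-and-steady-state fit was used to obtain the pre-steady-state cleavage rate. The input data were sequencing reads of uncleaved targets, normalised to depth and to weakly complementary targets, from a […] transcribed, DNA-blocked target RNA library mixed with 1 nM active affinity-purified piRISC holding one synthetic guide, with or without 500 nM GTSF1 partner protein, in HEPES–potassium acetate buffer at 33 °C for 0–8 or 0–960 min. Three trials were pooled and k3 was capped at 0.0001 min^-1.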
For AUCACUGUCACCUUCUCUGAGACUAAUUGA, the “pre-steady-state target cleavage rate” value was 0.00228 ± 0.0041.
In the case of UAGUGUGUCACCAACUCUGAGAGAUUAUGA, the “pre-steady-state target cleavage rate” value is reported as 0.00285 ± 0.0045.
In the case of UACACUGUCACCUUCUCUGACUCAUAUUGA, the “pre-steady-state target cleavage rate” value is reported as 0.00103 ± 0.008.
With UACACUGUCACGUUCUCUGUGAGAUUAACA the “pre-steady-state target cleavage rate” value was 0.233 ± 0.014.
With UAGUGACAGUCCUUCUCUGAGAGUUUAUGA the “pre-steady-state target cleavage rate” value was 0.000398 ± 0.019.
With “UACACUGUCACCUUCUCUCUCUCUAAUUGA [g13:g28:cont:t1A]” the “pre-steady-state target cleavage rate” value was 0.00167 ± 0.0077.
AUCACUGUCACCUUGUCUGAGAGAUUUACA was tested, and the “pre-steady-state target cleavage rate” value was 0.799 ± 0.14.
In the case of UAGUGUGUCACCUUCUCUCUGAGAUUAUGA, the “pre-steady-state target cleavage rate” value is reported as 0.00134 ± 0.0097.
In the case of UAGUGACAGUGCUUCUCUCAGAGUUUAACA, the “pre-steady-state target cleavage rate” value is reported as 0.000658 ± 0.0086.
UAGACUGUCACCUUCUCUGAGUCAUUAAGA was tested, and the “pre-steady-state target cleavage rate” value was 0.000677 ± 0.0077.
In the case of UAGACUGUCUCCUUCUCUGAGAGAUUAACA, the “pre-steady-state target cleavage rate” value is reported as 0.662 ± 0.04.
For UAGUGUGUCACCUUGACUGAGAGAUUAAGA, the “pre-steady-state target cleavage rate” value was 0.0019 ± 0.0058.
With UAGUGAGUCACCUUCUCUGAGACUAUUUGA the “pre-steady-state target cleavage rate” value was 0.00203 ± 0.0065.
In the case of UAGUGACAGACCUUCUCUGAGUCUUUAUGA, the “pre-steady-state target cleavage rate” value is reported as 0.000417 ± 0.022.
UAGUGUGUCACCUUCUGUGAGAGAUAUUGA was tested, and the “pre-steady-state target cleavage rate” value was 0.0041 ± 0.0043.
For UAGUGACAGUCCUUGACUGAGAGAUUAACA, the “pre-steady-state target cleavage rate” value was 0.00119 ± 0.0056.
UAGUGACAGUCCAUCUCUGAGACAUUAACA was tested, and the “pre-steady-state target cleavage rate” value was 0.00139 ± 0.0046.
With UAGUGACUCACCUACUCUGAGAGAUUUUGA the “pre-steady-state target cleavage rate” value was 0.000814 ± 0.0072.
With UAGUGACAGUCCUUCUCUGACAGAUUAUCA the “pre-steady-state target cleavage rate” value was 0.0004 ± 0.017.
For UAGUGACAGUGCUACUCAGAGAGAUUAACA, the “pre-steady-state target cleavage rate” value was 0.000271 ± 0.014.
For UAGUGACACACCUUCUCUGAGUGAUUUUGA, the “pre-steady-state target cleavage rate” value was 0.000379 ± 0.016.
UAGUGAGUCACCUUCUCUCUCAGAUUAACA was tested, and the “pre-steady-state target cleavage rate” value was 0.0031 ± 0.0046.
UAGUGACAGUGCUUGUCUGAGAGUUUAACA was tested, and the “pre-steady-state target cleavage rate” value was 0.0023 ± 0.0047.
For UAGUCUGUCACCUUCUCUCUCAGAUUAACA, the “pre-steady-state target cleavage rate” value was 0.00135 ± 0.0067.
With UACACUGUCUGGUUCUCUGAGAGAUUAUGA the “pre-steady-state target cleavage rate” value was 0.00191 ± 0.0056.
UAGUGACAGUCCAUCUCUGAGAGAUAAACA was tested, and the “pre-steady-state target cleavage rate” value was 0.00174 ± 0.0048.
For UAGUGACAGUCCUUCAGUGAGAGAUUAAGA, the “pre-steady-state target cleavage rate” value was 0.00123 ± 0.0073.
For UAGUGACAGUCCUUCUCUGAGAGUUAAACA, the “pre-steady-state target cleavage rate” value was 0.00128 ± 0.0043.
For UAGUGACAGUGGUUCUCUGACUCAUUAACA, the “pre-steady-state target cleavage rate” value was 0.000177 ± 0.02.
In the case of AUCACUGUCACCUUCUCUGAGUCAUUAAGA, the “pre-steady-state target cleavage rate” value is reported as 0.00223 ± 0.0043.
In the case of UAGUGUGUCAGGUUCUCUGAGAGAUAUUGA, the “pre-steady-state target cleavage rate” value is reported as 0.00159 ± 0.0049.
In the case of UAGUGACAGUGCUUGUCUGAGACAUUAACA, the “pre-steady-state target cleavage rate” value is reported as 0.000264 ± 0.025.
UAGUGACAGAGCUUCUCUGAGUGAUUAACA was tested, and the “pre-steady-state target cleavage rate” value was 0.00306 ± 0.0047.
In the case of UAGUCUGUCAGGAUCUCUGAGAGAUUUUGA, the “pre-steady-state target cleavage rate” value is reported as 0.00146 ± 0.006.
UAGUGACAGUGGAAGACUGAGACAUUAAGA was tested, and the “pre-steady-state target cleavage rate” value was 0.000134 ± 0.035.
For UAGUGACAGUGCUUCUCUGAGAGUUUAUCA, the “pre-steady-state target cleavage rate” value was 0.000471 ± 0.0083.
With UUCACUGUCAGGUUCUCUGAGAGAUUUUGA the “pre-steady-state target cleavage rate” value was 0.00281 ± 0.0037.
UAGUGACACACGAACUCUGAGAGAUUAACA was tested, and the “pre-steady-state target cleavage rate” value was 0.000281 ± 0.011.
UAGUGACAGUGGAACUCUGAGAAAUUAACA was tested, and the “pre-steady-state target cleavage rate” value was 0.000112 ± 0.048.
With UAGUGACUCACGAUCUCUGAGAGAUUAACA the “pre-steady-state target cleavage rate” value was 0.00958 ± 0.0018.
For UAGUGACAGUGCUUCUCUGAGAGAAUAACA, the “pre-steady-state target cleavage rate” value was 0.00147 ± 0.0048.
For “UACACUGUCACCUUCUCACUCUCUAAUUGA [g14:g28:cont:t1A]”, the “pre-steady-state target cleavage rate” value was 0.00103 ± 0.0094.
With AACACUCUCACCUUCUCUGAGAGAUUAACA the “pre-steady-state target cleavage rate” value was 0.564 ± 0.035.
UAGUGACUCACCUUCAGUGAGAGAUUAAGA was tested, and the “pre-steady-state target cleavage rate” value was 0.00239 ± 0.0055.
In the case of UAGUGACAGUGGAUCUCUGAGCAGAUUAACA, the “pre-steady-state target cleavage rate” value is reported as 0.000178 ± 0.026.
For UAGUGACAGUGCUUCUCUGAGAGAUUUUCA, the “pre-steady-state target cleavage rate” value was 0.000685 ± 0.0076.
In the case of UACACUGUCACCUUCUCUGAGUGAUAUUGA, the “pre-steady-state target cleavage rate” value is reported as 0.00215 ± 0.0072.
UAGUGAGUCACCUUGACUGAGAGAUUAUGA was tested, and the “pre-steady-state target cleavage rate” value was 0.00135 ± 0.0071.
For UAGUGAGUCACCUUCACUGAGAGAUAUUGA, the “pre-steady-state target cleavage rate” value was 0.00186 ± 0.0061.
For UACACUGUCACCUUGAGUGAGAGAUUAUGA, the “pre-steady-state target cleavage rate” value was 0.000699 ± 0.021.
With UAGACUGUCACCUUCUCUGAGACUAUAACA the “pre-steady-state target cleavage rate” value was 0.000637 ± 0.0066.
For UAGUGACAGUCCUUCUCUGACGAGAUUAACA, the “pre-steady-state target cleavage rate” value was 0.000915 ± 0.0059.
With UAGUGAGUCACGAACUCUGAGAGAUUAAGA the “pre-steady-state target cleavage rate” value was 0.00178 ± 0.004.
With UAGUCUGUCACCUUCUCUGAGUGAUUAUGA the “pre-steady-state target cleavage rate” value was 0.00211 ± 0.0061.
In the case of UACACUGUCAGGUUCUCUGAGAGAUAUUGA, the “pre-steady-state target cleavage rate” value is reported as 0.000877 ± 0.0085.
UAGUGACAGUGGAAGAGACAGAGAUUAAUA was tested, and the “pre-steady-state target cleavage rate” value was 0.000196 ± 0.051.
In the case of UAGUGACUCACCUUGAGUGAGAGAUAUUGA, the “pre-steady-state target cleavage rate” value is reported as 0.000682 ± 0.011.
With UAGUGAGUCACCUUCUCUGACAGAUUUUGA the “pre-steady-state target cleavage rate” value was 0.00267 ± 0.0051.
With “UACACUGUCACCUUCUCUGACUCUAAUUGA [g11:g28:cont:t1A]” the “pre-steady-state target cleavage rate” value was 0.00123 ± 0.0084.
UAGUGACAGUGGAAGAGUGAGACAUUAUCA was tested, and the “pre-steady-state target cleavage rate” value was 0.000135 ± 0.038.
For UAGUGACAGUCCUUCUCUCAGACAUUAACA, the “pre-steady-state target cleavage rate” value was 0.000875 ± 0.0072.
In the case of AUCACUCACACCUUCUCUGAGAGAUUAACA, the “pre-steady-state target cleavage rate” value is reported as 0.587 ± 0.027.
UACACUGUCACCUUCUCUGAGUCUUUAAGA was tested, and the “pre-steady-state target cleavage rate” value was 0.00194 ± 0.0057.
UAGUGACAGACCAUCACUGAGAGAUUAACA was tested, and the “pre-steady-state target cleavage rate” value was 0.0035 ± 0.0038.
With AUCACUGUCACCUUCUCUGAGACUAUAUGA the “pre-steady-state target cleavage rate” value was 0.00256 ± 0.0038.
With UAGUGACAGACCUAGACUGAGAGAUUAACA the “pre-steady-state target cleavage rate” value was 0.000476 ± 0.016.
With UAGUGACAGUGCUUCUCUGAGAAUUAACA the “pre-steady-state target cleavage rate” value was 0.000955 ± 0.0056.
For UAGUCUGUCACGAUCUCUGAGAGAUUUUGA, the “pre-steady-state target cleavage rate” value was 0.00157 ± 0.0067.
UAGUGACAGUCCUUCUCUGAGAGAAUAUGA was tested, and the “pre-steady-state target cleavage rate” value was 0.000128 ± 0.034.
With UAGACUGUCACCUUCUCUGUCUGAUUUUGA the “pre-steady-state target cleavage rate” value was 0.000568 ± 0.011.
For UAGUGACAGUGCAUCUCUGAGAGAUUAUCA, the “pre-steady-state target cleavage rate” value was 0.000129 ± 0.02.
